According to publication PMC7862700:
The list shows a part of the results, in another mix than the full data. For some of these results: At the low end of the ranking the order means little.

Protein sequences, listed by entry. Tags and fused reporters are not part of them. Lines headed by an entry give the natural chain unless they say otherwise; changes in a name come on top.
UniProt Q01892: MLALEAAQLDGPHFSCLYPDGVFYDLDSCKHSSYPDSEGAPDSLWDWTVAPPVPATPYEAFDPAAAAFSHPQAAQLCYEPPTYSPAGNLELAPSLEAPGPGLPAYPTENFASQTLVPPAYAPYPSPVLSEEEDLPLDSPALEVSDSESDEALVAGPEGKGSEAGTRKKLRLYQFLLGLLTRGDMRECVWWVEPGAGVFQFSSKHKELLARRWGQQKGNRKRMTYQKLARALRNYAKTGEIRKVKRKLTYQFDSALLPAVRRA

What follows are sequences tested against SPIB (UniProt Q01892) (assay: DAPPL (digital affinity profiling via proximity ligation, sequencing)). Conditions: 10 mM Tris-HCl pH 7.5, 50 mM NaCl, 1 mM DTT, 4% glycerol, room temperature, 30 min; GST-TFs on glutathione beads, 16-mer random dsDNA library, 0.1% …; high values mean tight binding; double strand, one strand shown; scale: fold enrichment (6-mer frequency, TF over GST control).

Sequence | binding signal
CGCTTC | 2.05
TAAAAT | 1.2
GTCTAC | 1.03
GGGCTA | 1.15
CGCTCT | 1.16

The sequences below were run against T1, ETV2 (UniProt O00321) in the same assay as above. Conditions: 10 mM Tris-HCl pH 7.5, 50 mM NaCl, 1 mM DTT, 4% glycerol, room temperature, 30 min; GST-TFs on glutathione beads, 16-mer random dsDNA library, 0.1% …; high values mean tight binding; double strand, one strand shown; scale: fold enrichment (6-mer frequency, TF over GST control).
T1 sequence: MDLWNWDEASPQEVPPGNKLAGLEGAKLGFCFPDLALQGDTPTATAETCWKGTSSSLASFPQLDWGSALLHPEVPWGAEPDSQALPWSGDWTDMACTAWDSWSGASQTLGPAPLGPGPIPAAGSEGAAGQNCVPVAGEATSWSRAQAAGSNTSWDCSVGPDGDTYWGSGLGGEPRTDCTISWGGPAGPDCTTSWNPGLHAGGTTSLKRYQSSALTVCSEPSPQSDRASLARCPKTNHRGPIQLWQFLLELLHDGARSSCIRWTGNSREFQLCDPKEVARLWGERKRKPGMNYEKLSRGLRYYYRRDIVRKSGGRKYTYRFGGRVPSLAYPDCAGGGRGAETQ

Sequence | binding signal
CGCTTC | 1.68
TAAAAT | 1.34
GTCTAC | 0.961
GGGCTA | 0.977
CGCTCT | 1.12

These sequences were tested against T2, ETV3L (UniProt Q6ZN32) in the same assay as above. Conditions: 10 mM Tris-HCl pH 7.5, 50 mM NaCl, 1 mM DTT, 4% glycerol, room temperature, 30 min; GST-TFs on glutathione beads, 16-mer random dsDNA library, 0.1% …; high values mean tight binding; double strand, one strand shown; scale: fold enrichment (6-mer frequency, TF over GST control).
T2 sequence: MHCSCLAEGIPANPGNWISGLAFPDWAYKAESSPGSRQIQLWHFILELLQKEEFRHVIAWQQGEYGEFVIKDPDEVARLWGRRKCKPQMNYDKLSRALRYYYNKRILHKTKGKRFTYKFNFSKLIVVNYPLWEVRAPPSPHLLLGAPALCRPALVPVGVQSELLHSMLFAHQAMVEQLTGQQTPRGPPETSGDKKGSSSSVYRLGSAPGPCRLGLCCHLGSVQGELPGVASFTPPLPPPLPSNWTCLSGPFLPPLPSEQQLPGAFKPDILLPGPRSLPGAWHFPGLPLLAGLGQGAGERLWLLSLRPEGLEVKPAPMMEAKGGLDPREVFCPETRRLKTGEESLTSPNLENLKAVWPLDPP

Sequence | binding signal
CGACTC | 1.36
CCTCAC | 1.19
AAACAT | 1.46
ACTAGC | 1.16
GTTCAT | 1.16
AATGTC | 1.22
TACGTT | 1.32
TTATCA | 1.15
CTGTAA | 0.986
CCCGAC | 1.41
GACCTA | 1.31
GTTGCA | 1.19
GGCTCT | 1.34
TACCCT | 1.18
CTCATT | 1.47
ACACTT | 1.64
AACTTC | 2.51

As entered above:
For binding signal, GTTCAT has 1.16
For binding signal, AAACAT has 1.46

(further entries)

Sequence | binding signal
ATAATT | 1.4
ATGTAA | 1.26
GAAAAG | 1.09
ACTCTA | 1.39
CCGGTA | 1.46
TGCTGT | 0.998
TGCTCA | 1.31
TTTGGC | 1.23
GCTAAT | 1.13
ACCTAA | 1.18
TTGCTA | 1.35
CTCAGA | 1.06
CTCAAA | 1.16
GATGCC | 1.39
CTCTAG | 1.28
CGATTT | 1.17
